# PubChem BioAssay (EPA / NIEHS)
# Sequences of proteins named here, by UniProt entry; tags and fusion partners are left off. A change or cut given only in a name is not applied to a line headed by its entry.
# UniProt P35353: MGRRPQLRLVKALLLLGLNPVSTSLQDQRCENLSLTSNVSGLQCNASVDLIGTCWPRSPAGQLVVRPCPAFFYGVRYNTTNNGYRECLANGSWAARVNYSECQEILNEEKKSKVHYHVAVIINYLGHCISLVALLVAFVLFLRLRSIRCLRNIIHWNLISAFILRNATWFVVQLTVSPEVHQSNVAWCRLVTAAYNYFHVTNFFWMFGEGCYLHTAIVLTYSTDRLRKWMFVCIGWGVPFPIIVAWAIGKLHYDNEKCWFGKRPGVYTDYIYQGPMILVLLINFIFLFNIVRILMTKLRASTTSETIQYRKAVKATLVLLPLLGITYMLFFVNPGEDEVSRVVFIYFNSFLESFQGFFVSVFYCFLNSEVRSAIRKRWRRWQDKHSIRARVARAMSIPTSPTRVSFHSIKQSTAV
# UniProt Q9Z0U4, whole entry, looked up: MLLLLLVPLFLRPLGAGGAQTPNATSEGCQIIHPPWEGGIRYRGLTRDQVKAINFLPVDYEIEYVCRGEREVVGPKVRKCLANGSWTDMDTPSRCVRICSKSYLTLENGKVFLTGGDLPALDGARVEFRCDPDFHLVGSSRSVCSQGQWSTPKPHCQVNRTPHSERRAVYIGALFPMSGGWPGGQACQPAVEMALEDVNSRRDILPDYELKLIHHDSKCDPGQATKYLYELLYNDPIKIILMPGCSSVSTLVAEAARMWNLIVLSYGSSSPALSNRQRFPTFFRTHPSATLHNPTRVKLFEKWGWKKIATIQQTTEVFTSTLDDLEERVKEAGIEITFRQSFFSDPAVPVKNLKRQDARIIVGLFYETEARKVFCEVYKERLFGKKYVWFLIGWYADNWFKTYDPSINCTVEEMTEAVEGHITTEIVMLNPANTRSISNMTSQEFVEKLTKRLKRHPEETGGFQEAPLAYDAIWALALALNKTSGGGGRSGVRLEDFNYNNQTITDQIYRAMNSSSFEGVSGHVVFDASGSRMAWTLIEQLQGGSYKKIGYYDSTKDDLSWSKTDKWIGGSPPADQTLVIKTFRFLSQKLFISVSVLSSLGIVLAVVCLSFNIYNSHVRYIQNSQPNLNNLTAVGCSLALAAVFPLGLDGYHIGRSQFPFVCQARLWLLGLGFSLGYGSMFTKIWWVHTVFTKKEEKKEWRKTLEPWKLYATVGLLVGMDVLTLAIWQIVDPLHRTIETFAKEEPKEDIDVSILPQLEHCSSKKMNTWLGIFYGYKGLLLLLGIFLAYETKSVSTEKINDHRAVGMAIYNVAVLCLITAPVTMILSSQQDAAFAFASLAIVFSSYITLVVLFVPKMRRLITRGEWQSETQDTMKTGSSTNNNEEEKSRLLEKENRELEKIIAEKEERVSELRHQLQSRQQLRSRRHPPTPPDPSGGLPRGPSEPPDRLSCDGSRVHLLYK
# UniProt Q9QYN8: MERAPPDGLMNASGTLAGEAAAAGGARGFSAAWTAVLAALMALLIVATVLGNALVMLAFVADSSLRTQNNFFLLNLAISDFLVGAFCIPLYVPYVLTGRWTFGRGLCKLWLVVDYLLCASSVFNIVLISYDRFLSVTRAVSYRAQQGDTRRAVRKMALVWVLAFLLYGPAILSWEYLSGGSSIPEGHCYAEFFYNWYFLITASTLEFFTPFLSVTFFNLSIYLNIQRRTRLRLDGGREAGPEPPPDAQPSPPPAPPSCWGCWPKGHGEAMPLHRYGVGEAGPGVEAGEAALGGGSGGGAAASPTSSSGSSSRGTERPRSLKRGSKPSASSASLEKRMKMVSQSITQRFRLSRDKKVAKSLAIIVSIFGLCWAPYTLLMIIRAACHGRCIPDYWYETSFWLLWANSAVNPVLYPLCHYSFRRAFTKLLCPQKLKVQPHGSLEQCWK
# UniProt P23385: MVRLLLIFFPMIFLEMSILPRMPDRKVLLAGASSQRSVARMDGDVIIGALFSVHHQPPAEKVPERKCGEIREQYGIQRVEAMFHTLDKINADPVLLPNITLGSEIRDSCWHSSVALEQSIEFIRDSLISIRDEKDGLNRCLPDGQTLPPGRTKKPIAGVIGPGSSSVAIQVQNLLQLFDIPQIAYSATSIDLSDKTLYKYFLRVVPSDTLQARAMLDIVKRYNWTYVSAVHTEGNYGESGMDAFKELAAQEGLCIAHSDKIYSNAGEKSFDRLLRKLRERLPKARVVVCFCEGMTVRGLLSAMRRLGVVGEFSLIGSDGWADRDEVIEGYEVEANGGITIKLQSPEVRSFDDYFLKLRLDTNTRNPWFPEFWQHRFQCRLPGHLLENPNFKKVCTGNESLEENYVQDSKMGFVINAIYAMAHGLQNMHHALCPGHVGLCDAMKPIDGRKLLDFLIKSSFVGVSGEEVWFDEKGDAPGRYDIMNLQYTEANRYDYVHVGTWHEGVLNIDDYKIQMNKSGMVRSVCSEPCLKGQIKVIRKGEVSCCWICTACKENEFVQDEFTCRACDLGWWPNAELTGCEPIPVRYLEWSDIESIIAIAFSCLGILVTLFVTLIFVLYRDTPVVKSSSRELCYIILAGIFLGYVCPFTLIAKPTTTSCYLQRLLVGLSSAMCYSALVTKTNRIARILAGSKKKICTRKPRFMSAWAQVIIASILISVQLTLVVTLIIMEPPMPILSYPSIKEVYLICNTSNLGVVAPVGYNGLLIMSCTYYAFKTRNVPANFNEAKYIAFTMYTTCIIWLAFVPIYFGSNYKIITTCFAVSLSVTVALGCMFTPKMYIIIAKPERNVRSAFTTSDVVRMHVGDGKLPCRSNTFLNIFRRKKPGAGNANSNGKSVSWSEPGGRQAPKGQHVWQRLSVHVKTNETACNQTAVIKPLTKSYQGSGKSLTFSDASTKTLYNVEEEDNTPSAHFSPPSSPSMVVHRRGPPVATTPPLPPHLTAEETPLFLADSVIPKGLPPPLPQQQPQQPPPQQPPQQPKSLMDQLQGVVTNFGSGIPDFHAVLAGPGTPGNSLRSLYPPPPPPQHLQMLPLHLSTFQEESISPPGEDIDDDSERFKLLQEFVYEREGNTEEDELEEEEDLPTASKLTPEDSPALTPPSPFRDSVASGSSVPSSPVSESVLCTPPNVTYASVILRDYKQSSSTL
# UniProt P19328, whole entry, looked up: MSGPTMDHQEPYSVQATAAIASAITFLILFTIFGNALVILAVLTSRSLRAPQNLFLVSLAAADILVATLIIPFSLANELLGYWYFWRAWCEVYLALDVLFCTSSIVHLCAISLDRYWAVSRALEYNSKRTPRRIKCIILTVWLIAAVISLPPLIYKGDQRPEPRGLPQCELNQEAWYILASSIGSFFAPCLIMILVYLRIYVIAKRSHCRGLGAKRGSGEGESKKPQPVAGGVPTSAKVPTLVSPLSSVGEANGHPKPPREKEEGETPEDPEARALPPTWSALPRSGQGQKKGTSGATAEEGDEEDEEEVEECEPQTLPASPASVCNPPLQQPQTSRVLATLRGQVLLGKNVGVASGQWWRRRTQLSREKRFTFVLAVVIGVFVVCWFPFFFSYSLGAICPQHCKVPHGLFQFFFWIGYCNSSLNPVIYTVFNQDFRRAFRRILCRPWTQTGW
# The inconclusive results got no clear call from the source; some entries with a clear call stand among them for comparison. For some of these results: Potencies of inconclusive entries are doubtful fits and often do not repeat. Active and inactive are the calls of the source. Rule for the calls: active = hit-call score of the fitted dose curve at least 0.9, where 1 is the maximum; inconclusive = response in the unintended direction; inactive = score below 0.9.
# Molecular target: rat Corticotropin Releasing Factor Receptor (CRF), Crhr1 (gene 58959) (UniProt P35353)
# Assay: NVS_GPCR_rCRF: NovaScreen (NVS) G Protein-Coupled Receptor Assay for rat Corticotropin Releasing Factor Receptor (CRF) (AID 2283300)
# Procedure, shortened: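 Single-concentration (25 uM, duplicate) radioligand binding on rat cortical membrane preparations, counted by scintillation after 2 h. Activity scored as signal loss relative to DMSO negative control.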
SMILES,outcome,AC50
N#Cc1nn(-c2c(Cl)cc(C(F)(F)F)cc2Cl)c(N)c1S(=O)C(F)(F)F (configuration not stated),inactive,–
COc1cc(C=O)cc2c1[C@H](COC(N)=O)[C@]1(OC(C)=O)ON2C[C@H]2[C@@H]1N2C(C)=O,–,inconclusive: 789 nM
Cc1cc(C2CC2)nc(Nc2ccccc2)n1,inactive,–
CS(=O)(=O)c1cc(C(F)(F)F)ccc1C(=O)c1cnoc1C1CC1,–,inconclusive: 67.7 nM
COC(=O)c1c(C(F)F)nc(C(F)(F)F)c(C2=NCCS2)c1CC(C)C,–,inconclusive: 25000 nM

# Molecular target: rat Gamma-Aminobutyric Acid Type B Receptor (GABBR), Gabbr1 (gene 81657) (UniProt Q9Z0U4)
# Assay: NVS_GPCR_rGABBR: NovaScreen (NVS) G Protein-Coupled Receptor Assay for rat Gamma-Aminobutyric Acid Type B Receptor (GABBR) (AID 2283301)
# Experimental: NVS_GPCR_rGABBR is a biochemical, single-readout assay that uses extracted gene-proteins from Rat cortical membranes in a tissue-based cell-free assay. Measurements were taken 1 hour after chemical dosing in a 96-well plate.NVS_GPCR_rGABBR is one of one assay component(s) measured or calculated from the NVS_GPCR_rGABBR assay. It is designed to make measurements of radioligand binding, a form of binding reporter, as detected with scintillation counting signals by Filter-based radiodetection technology.Data from the assay component NVS_GPCR_rGABBR was analyzed into 1 assay endpoint. This assay endpoint, NVS_GPCR_rGABBR, was analyzed in the positive analysis fitting direction relative to DMSO as the negative control and baseline of activity. Using a type of binding reporter, loss-of-signal activity can be used to understand changes in the binding as they relate to the gene Gabbr1. Furthermore, this assay endpoint can be referred to as a primary readout, because the performed assay has only produced 1 assay endpoint. To generalize the intended target to other relatable targets, this assay endpoint is annotated to the gpcr intended target family, where the subfamily is metabotropic glutamate receptor.
# Binding assays used specific radioligands (tritiated, iodinated) with non-radioactive competitive displacement ligands in agonist or antagonist protocols (as indicated) and various reference compounds and inhibitors to titrate specific binding to receptors and transporters. Most enzyme assays (CYPs, kinases, phosphatases, proteases, HDACs) used recombinant protein and specific substrates (fluorescence mostly, some colorimetric and radioactive) and inhibitors, followed by a biochemical separation of substrate and product. All assays for the biochemical HTS were initially run in duplicate at a single concentration (10 uM for CYP450 assays and 25 uM for all others). Assay-chemical combinations meeting a pre-defined threshold (e.g., 30% inhibition and other criteria defined below) were then run in singleton concentration-response format with maximum concentration of 20 uM for CYPs and 50 uM for all others. Each assay was run with positive and negative controls, and concurrent controls on every plate. The follow-up (secondary) screen tested active chemical-pairs in concentration series, as well as a few additional assays not tested in the primary screen, some selected negative inactives, and several cases re-run in the concentration series for confirmatory purposes.
SMILES,AC50,outcome
CC(=O)[O][Hg][c]1ccccc1,active: 38.5 µM,–
CC(C)(O)c1cnn2c(-c3ccc(F)c(-c4c(F)cccc4C#N)c3)cnc2n1,–,inactive
C=C(C)C(=O)[O][Sn]([CH2]CCC)([CH2]CCC)[CH2]CCC,inconclusive: 0.395 µM,–
Oc1ccc2ccc3cccc4ccc1c2c34,inconclusive: 46.9 µM,–

# Molecular target: rat Histamine Receptor (H3), Hrh3 (gene 85268) (UniProt Q9QYN8)
# Assay: NVS_GPCR_rH3: NovaScreen (NVS) G Protein-Coupled Receptor Assay for rat Histamine Receptor (H3) (AID 2283303)
# Procedure, shortened: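 Filter-binding radioligand competition on rat forebrain membranes, 1 h incubation; compounds screened at 25 µM in duplicate and followed in concentration series to 50 µM, loss of bound signal vs DMSO.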
SMILES,AC50,outcome
CON(C)C(=O)Nc1ccc(Cl)c(Cl)c1,inconclusive: 25 µM,–
Cc1c(COC(=O)[C@@H]2[C@H](/C=C(\Cl)C(F)(F)F)C2(C)C)cccc1-c1ccccc1,inconclusive: 25 µM,–
CC(Oc1ccc(Cl)cc1Cl)C(=O)O (configuration not stated),inconclusive: 1.47 µM,–
COP(=S)(OC)Oc1ccc([N+](=O)[O-])cc1,inconclusive: 25 µM,–
O=C1C2CC=CCC2C(=O)N1SC(Cl)(Cl)Cl (configuration not stated),–,inactive
C=C(C)C(=O)[O][Sn]([CH2]CCC)([CH2]CCC)[CH2]CCC,active: 25 µM,–
COP(=O)(OC)OC(Br)C(Cl)(Cl)Br (configuration not stated),active: 5.79 µM,–

# Molecular target: Metabotropic glutamate receptor 1 (Rattus norvegicus) (UniProt P23385)
# Assay: NVS_GPCR_rmMGluR1: NovaScreen (NVS) G Protein-Coupled Receptor Assay for rat Glutamate Metabotropic Receptor 1 (MGluR1) (AID 2283305)
# Procedure, shortened: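 Binding to native receptor from rat cerebellum extract, measured as displacement of a radioligand (scintillation counting, filter separation) after 1 hour. Compounds tested at 25 uM in duplicate, then titrated to a 50 uM maximum.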
SMILES,AC50,outcome
Cc1ccc(-c2c(Cl)nc(C#N)n2S(=O)(=O)N(C)C)cc1,inconclusive: 2.35 µM,–
CC(C)N(C(=O)COc1nnc(C(F)(F)F)s1)c1ccc(F)cc1,–,inactive
N#Cc1c(Cl)c(Cl)c(Cl)c(C#N)c1Cl,–,inactive

# Molecular target: Adra2b (gene 24174) (UniProt P19328)
# Assay: NVS_GPCR_rmAdra2B: NovaScreen (NVS) G Protein-Coupled Receptor Assay for hybird cells Adrenergic, Alpha 2B Receptor (Adra2B) (AID 2283306)
# Procedure, shortened: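 Compounds screened first at 25 uM in duplicate, with actives followed up in concentration-response; specific radioligand displacement from hybrid neuroglioma/blastoma cell membrane preparations measured by filter scintillation counting after 1 h, normalized to DMSO.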
SMILES,outcome,AC50
O=C(Oc1ccc(Br)cc1)N1CCN2CCC1CC2,inactive,–
Cc1ccc(-c2c(Cl)nc(C#N)n2S(=O)(=O)N(C)C)cc1,–,active: 4.08 µM
CC[C@H](C)[C@H]1O[C@]2(C=C[C@@H]1C)C[C@@H]1C[C@@H](C/C=C(\C)[C@@H](O[C@H]3C[C@H](OC)[C@@H](O[C@H]4C[C@H](OC)[C@@H](NC)[C@H](C)O4)[C@H](C)O3)[C@@H](C)/C=C/C=C3\CO[C@@H]4[C@H](O)C(C)=C[C@@H](C(=O)O1)[C@]34O)O2,–,active: 34.8 µM
